Test results reported in doi:10.1101/2023.07.08.548186.
Results are given in words; binding and its absence hold for the method and conditions named. Some binding calls cover weakened binding; strength is not graded here.

Legend:
[1] = biological target: human ATG2A, full length (human) (UniProt Q2TAZ0); test: cryo-electron tomography
[2] = biological target: human ATG2A, full length (human) (UniProt Q2TAZ0); test: cryo-EM structure
[3] = biological target: human ATG2A, full length (human) (UniProt Q2TAZ0); test: cross-linking
[4] = biological target: human ATG2A, full length (human) (UniProt Q2TAZ0); test: cryo-EM structure; remark: listed apart in the source
[5] = biological target: human ATG2A, full length (human) (UniProt Q2TAZ0); test: cryo-EM structure; remark: listed apart in the source
[6] = biological target: T1, human ATG2A, full length (human), Q2TAZ0; test: pull-down; conditions: remark: other sources report otherwise
T1 chain: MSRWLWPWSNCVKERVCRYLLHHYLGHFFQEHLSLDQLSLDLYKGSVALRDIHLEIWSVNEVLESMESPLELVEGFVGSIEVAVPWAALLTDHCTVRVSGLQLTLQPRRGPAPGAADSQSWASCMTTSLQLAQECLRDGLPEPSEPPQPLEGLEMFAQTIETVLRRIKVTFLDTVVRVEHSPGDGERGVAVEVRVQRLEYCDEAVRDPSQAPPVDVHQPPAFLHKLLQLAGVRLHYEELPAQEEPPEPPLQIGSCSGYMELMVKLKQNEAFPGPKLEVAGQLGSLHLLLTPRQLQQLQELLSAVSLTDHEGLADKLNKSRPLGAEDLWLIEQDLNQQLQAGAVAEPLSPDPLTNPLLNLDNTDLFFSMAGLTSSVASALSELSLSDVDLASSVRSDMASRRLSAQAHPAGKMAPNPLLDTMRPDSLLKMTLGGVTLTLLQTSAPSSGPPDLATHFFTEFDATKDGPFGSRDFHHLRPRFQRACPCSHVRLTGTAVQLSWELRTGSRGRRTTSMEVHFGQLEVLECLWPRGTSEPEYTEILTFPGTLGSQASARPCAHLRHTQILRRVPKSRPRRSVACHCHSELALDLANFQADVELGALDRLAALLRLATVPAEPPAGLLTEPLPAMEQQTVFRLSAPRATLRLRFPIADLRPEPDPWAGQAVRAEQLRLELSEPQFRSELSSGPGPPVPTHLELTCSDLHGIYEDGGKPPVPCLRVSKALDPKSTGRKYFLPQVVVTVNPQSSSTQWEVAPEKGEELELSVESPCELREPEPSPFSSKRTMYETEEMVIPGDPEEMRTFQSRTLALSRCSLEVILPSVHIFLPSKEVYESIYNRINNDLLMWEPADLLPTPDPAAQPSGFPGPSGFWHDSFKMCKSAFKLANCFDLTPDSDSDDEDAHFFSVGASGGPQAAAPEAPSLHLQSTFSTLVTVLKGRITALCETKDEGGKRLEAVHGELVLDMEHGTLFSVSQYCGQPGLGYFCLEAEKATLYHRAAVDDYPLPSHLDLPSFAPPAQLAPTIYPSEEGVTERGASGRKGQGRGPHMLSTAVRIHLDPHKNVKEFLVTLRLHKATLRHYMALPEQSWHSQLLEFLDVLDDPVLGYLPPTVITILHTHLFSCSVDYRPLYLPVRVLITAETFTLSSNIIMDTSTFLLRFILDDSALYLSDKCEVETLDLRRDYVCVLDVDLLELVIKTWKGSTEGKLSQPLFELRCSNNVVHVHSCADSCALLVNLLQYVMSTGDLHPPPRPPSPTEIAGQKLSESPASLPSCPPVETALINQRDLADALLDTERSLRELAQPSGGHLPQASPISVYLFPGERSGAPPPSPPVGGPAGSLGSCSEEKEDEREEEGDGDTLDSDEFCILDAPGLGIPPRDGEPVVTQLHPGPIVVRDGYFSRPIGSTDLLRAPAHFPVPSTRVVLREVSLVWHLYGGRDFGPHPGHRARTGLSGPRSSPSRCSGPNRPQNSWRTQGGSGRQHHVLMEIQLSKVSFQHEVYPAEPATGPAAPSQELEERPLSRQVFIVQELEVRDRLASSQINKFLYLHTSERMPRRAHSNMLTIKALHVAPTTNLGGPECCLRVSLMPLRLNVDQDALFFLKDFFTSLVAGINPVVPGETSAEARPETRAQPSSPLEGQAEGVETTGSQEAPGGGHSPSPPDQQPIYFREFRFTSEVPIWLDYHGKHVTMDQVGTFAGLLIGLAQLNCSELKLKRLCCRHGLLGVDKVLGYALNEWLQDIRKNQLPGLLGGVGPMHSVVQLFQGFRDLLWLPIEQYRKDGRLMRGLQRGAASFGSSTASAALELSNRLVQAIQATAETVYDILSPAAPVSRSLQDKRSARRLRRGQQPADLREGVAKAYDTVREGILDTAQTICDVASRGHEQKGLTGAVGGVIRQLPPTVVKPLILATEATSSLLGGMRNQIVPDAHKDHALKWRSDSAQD

Measured: binding

B1: WIPI4 (protein, UniProt Q9Y484 1-360)
chain: MTQQPLRGVTSLRFNQDQSCFCCAMETGVRIYNVEPLMEKGHLDHEQVGSMGLVEMLHRSNLLALVGGGSSPKFSEISVLIWDDAREGKDSKEKLVLEFTFTKPVLSVRMRHDKIVIVLKNRIYVYSFPDNPRKLFEFDTRDNPKGLCDLCPSLEKQLLVFPGHKCGSLQLVDLASTKPGTSSAPFTINAHQSDIACVSLNQPGTVVASASQKGTLIRLFDTQSKEKLVELRRGTDPATLYCINFSHDSSFLCASSDKGTVHIFALKDTRLNRRSALARVGKVGPMIGQYVDSQWSLASFTVPAESACICAFGRNTSKNVNSVIAICVDGTFHKYVFTPDGNCNREAFDVYLDICDDDDF
not listed: [6]
binds: all other assays above

B2: GABARAP, O95166 1-117 (protein)
chain: MKFVYKEEHPFEKRRSEGEKIRKKYPDRVPVIVEKAPKARIGDLDKKKYLVPSDLTVGQFYFLIRKRIHLRAEDALFFFVNNVIPPTSATMGQLYQEHHEEDFFLYIAYSDESVYGL
binds: [6]
